Assay results reported in article PMC7199855, “GRAF2, WDR44, and MICAL1 mediate Rab8/10/11–dependent export of E-cadherin, MMP14, and CFTR ΔF508” (The Journal of Cell Biology, 2020).
No constants are given. Whether binding was seen depends on the method and setting. In cells and extracts the contact can be indirect. Some binding calls cover weakened binding; strength is not graded here. Tags and fused reporters may be left off the sequences shown.

Sequences of proteins named here, by UniProt entry; tags and fusion partners are left off.
UniProt Q8N3F8: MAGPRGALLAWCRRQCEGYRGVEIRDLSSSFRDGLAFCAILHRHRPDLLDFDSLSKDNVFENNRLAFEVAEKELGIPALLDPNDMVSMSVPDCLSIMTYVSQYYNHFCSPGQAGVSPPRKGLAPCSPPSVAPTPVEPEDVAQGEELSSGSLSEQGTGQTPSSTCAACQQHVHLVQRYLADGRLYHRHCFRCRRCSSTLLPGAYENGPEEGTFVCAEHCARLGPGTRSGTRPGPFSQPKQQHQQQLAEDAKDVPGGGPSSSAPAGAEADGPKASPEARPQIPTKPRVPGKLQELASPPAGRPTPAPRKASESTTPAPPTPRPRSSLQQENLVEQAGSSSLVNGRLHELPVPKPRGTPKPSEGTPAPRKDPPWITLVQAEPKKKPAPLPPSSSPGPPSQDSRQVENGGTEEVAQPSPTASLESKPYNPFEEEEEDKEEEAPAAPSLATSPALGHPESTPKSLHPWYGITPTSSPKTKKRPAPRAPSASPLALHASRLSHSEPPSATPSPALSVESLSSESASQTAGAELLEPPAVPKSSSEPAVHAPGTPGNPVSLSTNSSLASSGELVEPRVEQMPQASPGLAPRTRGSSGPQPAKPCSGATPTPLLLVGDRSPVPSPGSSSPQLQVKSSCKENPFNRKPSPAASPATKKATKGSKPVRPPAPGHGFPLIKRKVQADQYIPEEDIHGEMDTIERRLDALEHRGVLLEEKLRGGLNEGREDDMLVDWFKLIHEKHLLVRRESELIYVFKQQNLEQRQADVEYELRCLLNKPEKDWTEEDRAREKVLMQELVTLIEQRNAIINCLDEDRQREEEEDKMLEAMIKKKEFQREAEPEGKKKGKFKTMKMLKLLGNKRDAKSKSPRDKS

Key:
Experiment in all cases: co-IP; transfected 293T, IP with α-GFP and Protein G Sepharose; 20 mM Hepes pH 7.4, 150 mM NaCl, 2 mM EDTA, 1% IGEPAL CA-630; Western blot
GFP-WDR44 (human) = target: T1, GFP-WDR44 (human) (UniProt Q5JSH3)
T1 sequence: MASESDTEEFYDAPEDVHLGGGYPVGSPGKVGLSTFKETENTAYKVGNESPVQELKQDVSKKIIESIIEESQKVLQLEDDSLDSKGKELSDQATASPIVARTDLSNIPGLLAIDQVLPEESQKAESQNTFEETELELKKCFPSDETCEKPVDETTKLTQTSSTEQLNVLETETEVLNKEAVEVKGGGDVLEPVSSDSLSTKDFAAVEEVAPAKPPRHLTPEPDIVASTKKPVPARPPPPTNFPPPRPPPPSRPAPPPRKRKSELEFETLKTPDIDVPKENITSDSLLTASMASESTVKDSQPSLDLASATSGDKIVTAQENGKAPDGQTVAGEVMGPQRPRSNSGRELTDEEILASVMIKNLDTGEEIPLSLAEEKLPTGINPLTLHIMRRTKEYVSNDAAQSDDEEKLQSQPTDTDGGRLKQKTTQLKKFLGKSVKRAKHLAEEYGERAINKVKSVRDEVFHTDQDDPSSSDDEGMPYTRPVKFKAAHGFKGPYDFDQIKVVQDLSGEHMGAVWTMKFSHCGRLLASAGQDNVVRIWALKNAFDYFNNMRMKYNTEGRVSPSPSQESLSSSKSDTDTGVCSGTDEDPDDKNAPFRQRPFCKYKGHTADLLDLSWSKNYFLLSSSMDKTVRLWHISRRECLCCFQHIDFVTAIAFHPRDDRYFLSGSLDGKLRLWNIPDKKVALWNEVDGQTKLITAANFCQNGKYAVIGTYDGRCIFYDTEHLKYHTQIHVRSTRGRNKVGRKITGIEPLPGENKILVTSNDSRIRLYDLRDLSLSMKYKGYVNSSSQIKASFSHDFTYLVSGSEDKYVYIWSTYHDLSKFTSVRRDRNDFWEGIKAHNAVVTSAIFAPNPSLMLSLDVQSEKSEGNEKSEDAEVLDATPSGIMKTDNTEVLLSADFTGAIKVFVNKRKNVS

GFP-MICAL1 (human) = target: T2, GFP-MICAL1 (human) (UniProt Q8TDZ2)
T2 sequence: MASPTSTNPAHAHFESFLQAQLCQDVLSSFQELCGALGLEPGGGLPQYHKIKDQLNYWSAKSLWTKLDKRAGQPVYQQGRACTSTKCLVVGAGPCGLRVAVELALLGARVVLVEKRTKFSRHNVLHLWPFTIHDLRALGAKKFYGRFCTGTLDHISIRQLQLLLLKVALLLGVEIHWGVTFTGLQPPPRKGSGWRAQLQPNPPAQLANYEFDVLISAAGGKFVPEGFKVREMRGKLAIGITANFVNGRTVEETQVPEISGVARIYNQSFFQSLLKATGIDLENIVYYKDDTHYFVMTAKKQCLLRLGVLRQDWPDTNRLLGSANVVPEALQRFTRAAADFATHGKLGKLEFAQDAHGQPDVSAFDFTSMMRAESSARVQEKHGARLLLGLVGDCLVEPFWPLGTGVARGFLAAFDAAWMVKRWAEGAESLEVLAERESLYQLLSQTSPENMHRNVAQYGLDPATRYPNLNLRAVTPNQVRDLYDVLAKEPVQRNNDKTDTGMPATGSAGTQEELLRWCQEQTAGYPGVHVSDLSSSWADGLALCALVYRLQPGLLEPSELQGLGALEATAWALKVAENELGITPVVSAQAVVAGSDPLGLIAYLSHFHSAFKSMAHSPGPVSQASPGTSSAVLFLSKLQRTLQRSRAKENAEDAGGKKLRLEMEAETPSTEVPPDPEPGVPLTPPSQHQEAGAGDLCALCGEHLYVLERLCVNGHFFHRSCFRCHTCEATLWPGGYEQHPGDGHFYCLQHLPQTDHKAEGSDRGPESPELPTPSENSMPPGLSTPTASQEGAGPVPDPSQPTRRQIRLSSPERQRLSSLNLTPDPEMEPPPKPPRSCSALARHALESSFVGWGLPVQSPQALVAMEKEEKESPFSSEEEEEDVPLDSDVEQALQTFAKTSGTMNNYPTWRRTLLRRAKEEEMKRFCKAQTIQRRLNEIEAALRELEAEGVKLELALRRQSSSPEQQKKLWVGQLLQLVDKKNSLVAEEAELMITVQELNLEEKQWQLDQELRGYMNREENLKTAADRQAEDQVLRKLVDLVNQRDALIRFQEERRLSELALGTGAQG

GFP–MICAL-L1 (human) = GFP–MICAL-L1 (human) (UniProt Q8N3F8)

- binding (GFP-WDR44 (human)): binds
- binding (GFP-MICAL1 (human)): binds
- binding (GFP–MICAL-L1 (human)): no binding
B1: GRAF1b-myc (protein, UniProt Q9UNA1-2 1-759)
chain: MGLPALEFSDCCLDSPHFRETLKSHEAELDKTNKFIKELIKDGKSLISALKNLSSAKRKFADSLNEFKFQCIGDAETDDEMCIARSLQEFATVLRNLEDERIRMIENASEVLITPLEKFRKEQIGAAKEAKKKYDKETEKYCGILEKHLNLSSKKKESQLQEADSQVDLVRQHFYEVSLEYVFKVQEVQERKMFEFVEPLLAFLQGLFTFYHHGYELAKDFGDFKTQLTISIQNTRNRFEGTRSEVESLMKKMKENPLEHKTISPYTMEGYLYVQEKRHFGTSWVKHYCTYQRDSKQITMVPFDQKSGGKGGEDESVILKSCTRRKTDSIEKRFCFDVEAVDRPGVITMQALSEEDRRLWMEAMDGREPVYNSNKDSQSEGTAQLDSIGFSIIRKCIHAVETRGINEQGLYRIVGVNSRVQKLLSVLMDPKTASETETDICAEWEIKTITSALKTYLRMLPGPLMMYQFQRSFIKAAKLENQESRVSEIHSLVHRLPEKNRQMLQLLMNHLANVANNHKQNLMTVANLGVVFGPTLLRPQEETVAAIMDIKFQNIVIEILIENHEKIFNTVPDMPLTNAQLHLSRKKSSDSKPPSCSERPLTLFHTVQSTEKQEQRNSIINSSLESVSSNPNSILNSSSSLQPNMNSSDPDLAVVKPTRPNSLPPNPSPTSPLSPSWPMFSAPSSPMPTSSTSSDSSPVSTPFRKAKALYACKAEHDSELSFTAGTVFDNVHPSQEPGWLEGTLNGKTGLIPENYVEFL
